From the supplement of paper PMC10849652
Some of the results follow.

By UniProt entry, the sequences of proteins in these tests, tags left out. Where a name states a change or a piece, a line headed by the entry shows the natural chain unless it says otherwise.
UniProt P06132: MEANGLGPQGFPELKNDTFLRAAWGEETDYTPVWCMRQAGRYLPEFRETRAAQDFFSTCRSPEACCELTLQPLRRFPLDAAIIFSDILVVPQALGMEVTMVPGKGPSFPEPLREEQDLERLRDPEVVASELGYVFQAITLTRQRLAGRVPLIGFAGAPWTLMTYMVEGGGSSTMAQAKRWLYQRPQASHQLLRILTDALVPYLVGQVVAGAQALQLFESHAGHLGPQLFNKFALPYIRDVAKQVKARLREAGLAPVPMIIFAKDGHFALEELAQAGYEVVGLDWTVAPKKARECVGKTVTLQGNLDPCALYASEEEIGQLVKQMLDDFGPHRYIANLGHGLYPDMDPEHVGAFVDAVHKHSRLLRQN
UniProt Q8N806: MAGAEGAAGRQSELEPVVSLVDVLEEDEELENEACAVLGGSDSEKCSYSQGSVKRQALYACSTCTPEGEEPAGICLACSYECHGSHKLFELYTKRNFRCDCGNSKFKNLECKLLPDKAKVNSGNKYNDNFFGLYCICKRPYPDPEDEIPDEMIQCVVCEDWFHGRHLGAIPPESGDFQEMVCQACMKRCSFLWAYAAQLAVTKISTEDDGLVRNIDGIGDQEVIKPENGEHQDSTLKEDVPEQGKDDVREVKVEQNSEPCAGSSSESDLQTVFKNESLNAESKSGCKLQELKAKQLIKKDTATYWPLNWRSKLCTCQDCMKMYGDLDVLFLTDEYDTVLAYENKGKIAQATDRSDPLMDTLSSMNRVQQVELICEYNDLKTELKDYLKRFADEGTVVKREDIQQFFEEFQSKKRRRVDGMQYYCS
UniProt Q9NYU1: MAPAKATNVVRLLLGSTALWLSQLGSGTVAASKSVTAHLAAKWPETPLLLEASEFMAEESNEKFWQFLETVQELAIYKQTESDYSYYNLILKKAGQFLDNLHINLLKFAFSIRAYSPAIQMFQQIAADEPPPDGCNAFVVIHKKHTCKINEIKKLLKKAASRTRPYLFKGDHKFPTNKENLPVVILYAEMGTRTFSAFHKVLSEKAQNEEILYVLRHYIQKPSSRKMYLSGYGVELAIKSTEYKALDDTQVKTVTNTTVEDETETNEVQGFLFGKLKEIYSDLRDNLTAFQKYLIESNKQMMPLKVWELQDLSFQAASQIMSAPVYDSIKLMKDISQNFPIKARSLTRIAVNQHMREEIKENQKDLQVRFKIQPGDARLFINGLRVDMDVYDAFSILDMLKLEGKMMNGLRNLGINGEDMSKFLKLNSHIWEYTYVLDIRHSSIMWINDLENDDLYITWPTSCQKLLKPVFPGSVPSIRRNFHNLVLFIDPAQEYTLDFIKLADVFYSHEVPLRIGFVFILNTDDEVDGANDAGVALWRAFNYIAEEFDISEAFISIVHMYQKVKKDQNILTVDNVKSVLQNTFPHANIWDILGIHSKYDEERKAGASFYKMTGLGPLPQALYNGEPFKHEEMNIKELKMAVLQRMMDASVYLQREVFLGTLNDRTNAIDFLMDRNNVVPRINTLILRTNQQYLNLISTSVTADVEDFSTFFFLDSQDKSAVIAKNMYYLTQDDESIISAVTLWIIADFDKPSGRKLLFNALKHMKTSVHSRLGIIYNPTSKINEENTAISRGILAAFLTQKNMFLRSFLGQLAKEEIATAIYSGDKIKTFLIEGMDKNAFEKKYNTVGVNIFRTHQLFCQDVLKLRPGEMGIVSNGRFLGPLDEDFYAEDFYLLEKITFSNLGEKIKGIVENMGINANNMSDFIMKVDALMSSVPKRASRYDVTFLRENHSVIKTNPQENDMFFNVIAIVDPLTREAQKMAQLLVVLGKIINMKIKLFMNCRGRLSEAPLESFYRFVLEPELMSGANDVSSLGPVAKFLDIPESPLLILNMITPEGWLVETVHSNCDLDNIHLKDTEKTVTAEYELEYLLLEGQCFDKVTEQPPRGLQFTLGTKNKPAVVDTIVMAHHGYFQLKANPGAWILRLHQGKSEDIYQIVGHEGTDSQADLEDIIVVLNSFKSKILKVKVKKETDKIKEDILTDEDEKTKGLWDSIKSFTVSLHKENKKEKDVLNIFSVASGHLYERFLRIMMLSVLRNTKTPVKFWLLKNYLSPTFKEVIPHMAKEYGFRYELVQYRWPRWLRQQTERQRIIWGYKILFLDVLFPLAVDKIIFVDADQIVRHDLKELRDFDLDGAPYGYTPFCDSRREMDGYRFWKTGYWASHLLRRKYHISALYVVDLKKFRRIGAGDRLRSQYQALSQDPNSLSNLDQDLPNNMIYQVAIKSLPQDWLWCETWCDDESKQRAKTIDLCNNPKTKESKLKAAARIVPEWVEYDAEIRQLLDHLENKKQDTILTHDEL
UniProt P07919: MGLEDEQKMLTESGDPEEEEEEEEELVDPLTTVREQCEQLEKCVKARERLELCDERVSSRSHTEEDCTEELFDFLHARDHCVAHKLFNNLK
UniProt O94763, whole entry, looked up: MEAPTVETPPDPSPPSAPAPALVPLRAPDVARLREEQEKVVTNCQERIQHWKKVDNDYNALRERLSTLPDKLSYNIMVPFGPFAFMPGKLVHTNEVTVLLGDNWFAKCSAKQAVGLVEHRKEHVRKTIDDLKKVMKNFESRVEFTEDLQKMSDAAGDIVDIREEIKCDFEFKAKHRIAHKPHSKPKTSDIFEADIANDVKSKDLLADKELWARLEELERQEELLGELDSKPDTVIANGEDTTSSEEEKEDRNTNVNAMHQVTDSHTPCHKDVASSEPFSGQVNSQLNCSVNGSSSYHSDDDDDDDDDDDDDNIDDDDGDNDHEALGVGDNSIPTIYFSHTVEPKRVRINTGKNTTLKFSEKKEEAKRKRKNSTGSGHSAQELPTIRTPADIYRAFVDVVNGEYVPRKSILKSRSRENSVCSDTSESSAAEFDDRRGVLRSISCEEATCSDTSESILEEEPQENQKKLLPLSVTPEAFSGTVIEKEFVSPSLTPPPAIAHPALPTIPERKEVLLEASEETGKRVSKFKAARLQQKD
UniProt Q70J99: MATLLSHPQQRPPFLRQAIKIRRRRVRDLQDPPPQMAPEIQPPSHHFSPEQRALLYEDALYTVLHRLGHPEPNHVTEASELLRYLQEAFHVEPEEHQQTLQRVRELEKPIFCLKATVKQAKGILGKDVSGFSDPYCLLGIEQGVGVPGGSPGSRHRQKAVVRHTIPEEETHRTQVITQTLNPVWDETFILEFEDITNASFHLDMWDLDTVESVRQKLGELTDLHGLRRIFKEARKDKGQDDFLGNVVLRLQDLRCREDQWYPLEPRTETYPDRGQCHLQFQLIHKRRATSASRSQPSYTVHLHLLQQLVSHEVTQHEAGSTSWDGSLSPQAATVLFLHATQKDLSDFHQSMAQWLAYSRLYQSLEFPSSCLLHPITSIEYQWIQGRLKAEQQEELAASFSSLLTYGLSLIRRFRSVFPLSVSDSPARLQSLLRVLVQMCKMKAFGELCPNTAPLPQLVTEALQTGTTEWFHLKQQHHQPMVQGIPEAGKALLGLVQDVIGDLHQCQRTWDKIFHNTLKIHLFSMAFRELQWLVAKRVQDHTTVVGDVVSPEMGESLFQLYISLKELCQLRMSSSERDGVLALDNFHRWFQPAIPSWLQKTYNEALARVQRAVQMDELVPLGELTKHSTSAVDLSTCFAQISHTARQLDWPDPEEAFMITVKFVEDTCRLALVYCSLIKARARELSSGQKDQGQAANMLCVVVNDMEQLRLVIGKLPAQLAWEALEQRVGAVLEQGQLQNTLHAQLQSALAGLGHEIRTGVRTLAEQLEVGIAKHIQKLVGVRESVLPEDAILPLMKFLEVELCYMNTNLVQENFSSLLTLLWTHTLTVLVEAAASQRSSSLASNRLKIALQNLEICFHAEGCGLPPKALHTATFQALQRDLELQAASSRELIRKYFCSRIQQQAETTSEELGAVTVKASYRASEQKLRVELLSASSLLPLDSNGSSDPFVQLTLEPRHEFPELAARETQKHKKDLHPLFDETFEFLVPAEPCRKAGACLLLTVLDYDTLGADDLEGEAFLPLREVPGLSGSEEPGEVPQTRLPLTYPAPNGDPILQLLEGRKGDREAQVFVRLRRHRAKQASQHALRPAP
UniProt P50552: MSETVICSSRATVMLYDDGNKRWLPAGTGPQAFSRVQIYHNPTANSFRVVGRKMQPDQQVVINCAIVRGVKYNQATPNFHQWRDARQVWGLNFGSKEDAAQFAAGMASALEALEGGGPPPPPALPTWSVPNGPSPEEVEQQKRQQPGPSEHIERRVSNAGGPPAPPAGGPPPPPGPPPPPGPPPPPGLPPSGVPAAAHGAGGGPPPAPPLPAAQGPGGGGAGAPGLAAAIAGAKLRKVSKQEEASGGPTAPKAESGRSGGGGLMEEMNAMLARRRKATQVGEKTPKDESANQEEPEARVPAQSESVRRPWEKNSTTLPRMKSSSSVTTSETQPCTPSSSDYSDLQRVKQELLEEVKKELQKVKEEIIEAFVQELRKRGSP
UniProt Q9NRR5, whole entry, looked up: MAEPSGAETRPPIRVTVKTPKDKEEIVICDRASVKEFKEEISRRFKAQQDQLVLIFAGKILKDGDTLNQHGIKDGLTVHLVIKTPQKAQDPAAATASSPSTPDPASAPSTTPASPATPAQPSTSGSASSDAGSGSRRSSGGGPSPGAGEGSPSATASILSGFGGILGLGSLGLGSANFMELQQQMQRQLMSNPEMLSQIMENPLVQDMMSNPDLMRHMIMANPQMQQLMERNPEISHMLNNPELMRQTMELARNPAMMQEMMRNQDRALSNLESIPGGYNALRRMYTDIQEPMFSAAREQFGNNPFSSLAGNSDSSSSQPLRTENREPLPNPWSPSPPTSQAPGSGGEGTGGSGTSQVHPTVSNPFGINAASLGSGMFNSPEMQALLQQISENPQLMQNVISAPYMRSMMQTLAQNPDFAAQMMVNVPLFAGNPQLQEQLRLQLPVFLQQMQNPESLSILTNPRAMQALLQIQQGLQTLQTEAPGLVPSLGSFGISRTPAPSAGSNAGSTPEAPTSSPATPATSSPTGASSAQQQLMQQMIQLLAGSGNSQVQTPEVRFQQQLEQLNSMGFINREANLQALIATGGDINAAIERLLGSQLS
UniProt Q8TAA9: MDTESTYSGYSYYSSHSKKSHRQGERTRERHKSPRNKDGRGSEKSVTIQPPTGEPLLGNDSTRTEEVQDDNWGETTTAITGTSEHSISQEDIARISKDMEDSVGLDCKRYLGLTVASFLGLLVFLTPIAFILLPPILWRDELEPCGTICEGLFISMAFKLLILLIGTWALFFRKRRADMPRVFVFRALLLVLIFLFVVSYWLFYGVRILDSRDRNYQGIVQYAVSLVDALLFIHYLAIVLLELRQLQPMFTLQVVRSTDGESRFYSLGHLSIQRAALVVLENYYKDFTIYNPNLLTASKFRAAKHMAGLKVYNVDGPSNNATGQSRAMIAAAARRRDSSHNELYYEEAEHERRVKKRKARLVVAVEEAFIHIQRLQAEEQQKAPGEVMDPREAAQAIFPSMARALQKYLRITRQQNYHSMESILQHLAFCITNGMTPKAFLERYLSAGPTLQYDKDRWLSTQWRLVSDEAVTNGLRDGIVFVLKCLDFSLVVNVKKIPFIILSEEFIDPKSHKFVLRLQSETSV
UniProt Q14694, whole entry, looked up: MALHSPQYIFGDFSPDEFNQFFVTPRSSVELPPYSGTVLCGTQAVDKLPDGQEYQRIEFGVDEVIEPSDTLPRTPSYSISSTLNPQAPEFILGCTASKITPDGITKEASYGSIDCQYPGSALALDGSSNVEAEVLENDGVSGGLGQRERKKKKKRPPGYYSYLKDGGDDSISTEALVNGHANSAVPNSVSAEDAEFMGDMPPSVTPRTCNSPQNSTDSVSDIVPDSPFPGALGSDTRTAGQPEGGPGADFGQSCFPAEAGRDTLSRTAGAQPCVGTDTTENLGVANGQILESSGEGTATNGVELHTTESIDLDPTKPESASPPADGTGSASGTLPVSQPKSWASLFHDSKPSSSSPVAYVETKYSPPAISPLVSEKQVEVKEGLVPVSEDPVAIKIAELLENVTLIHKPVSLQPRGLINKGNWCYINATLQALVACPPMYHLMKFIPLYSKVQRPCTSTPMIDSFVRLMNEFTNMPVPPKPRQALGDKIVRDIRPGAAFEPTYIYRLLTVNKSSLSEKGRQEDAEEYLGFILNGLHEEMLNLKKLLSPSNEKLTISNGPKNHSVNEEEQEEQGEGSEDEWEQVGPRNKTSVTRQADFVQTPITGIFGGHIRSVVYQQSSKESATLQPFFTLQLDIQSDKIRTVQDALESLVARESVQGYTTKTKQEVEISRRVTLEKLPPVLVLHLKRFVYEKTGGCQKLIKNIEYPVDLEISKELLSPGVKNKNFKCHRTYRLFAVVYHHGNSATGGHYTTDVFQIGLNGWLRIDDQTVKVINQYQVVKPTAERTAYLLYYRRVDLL
UniProt Q9BV40: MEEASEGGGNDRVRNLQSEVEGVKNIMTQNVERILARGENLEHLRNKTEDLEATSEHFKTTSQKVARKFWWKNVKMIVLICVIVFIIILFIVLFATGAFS

Tests used:
Experiment in all cases: log2 fold change, soluble protein after heating vs DMSO (PISA); higher = thermal stabilisation; K562 cells, 10 uM, 30 min; active = over 0.2 and 3.5 SD of the protein, either way, in both replicates (recomputed)
[1] = compound: CC[C@@H]1C(=O)N(C)c2cnc(Nc3ccc(C(=O)NC4CCN(C)CC4)cc3OC)nc2N1C1CCCC1
Method in brief: (§1)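 Soluble protein was quantified by TMTpro 16plex LC-MS/MS after channel sums were equalised. It was obtained as the supernatant after 21,000xg for 90 min from pooled aliquots of K562 cells (2×10^6 cells/mL, 10 μM compound, 30 min) heated for 3 min across 48°C-58°C and extracted in PBS with 0.5% NP-40 at 4°C. Thermal stability values are relative to control samples and come from duplicates. They are given as log2 fold changes.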

[2] = compound: CC[C@@H]1C(=O)N(C)c2cnc(Nc3ccc(C(=O)N[C@H]4CC[C@H](N5CCN(CC6CC6)CC5)CC4)cc3OC)nc2N1C(C)C [volasertib]
Method in brief: as §1

[3] = compound: CC[C@H](C)N1C=C(C2=C(C=C(C=C21)C3=CN=C(C=C3)N4CCNCC4)C(=O)NCC5=C(C=C(NC5=O)C)C)C
Method in brief: as §1

[4] = compound: CC[C@H](C)[C@@H](C(=O)N[C@@H]([C@@H](C)O)C(=O)N[C@@H](CC(C)C)C(=O)[C@]1(CO1)C)NC(=O)[C@H]([C@@H](C)CC)N(C)C(=O)C [epoxomicin]
Method in brief: as §1

[5] = compound: CCn1c(C(=O)N(C2CC2)C2CC2)cc2c3c(ncn3C)c(Nc3cc(C)n(C)n3)nc21
Method in brief: as §1

[6] = compound: CCn1cc(-c2ccnc3[nH]c(-c4cccc(CN(C)C)c4)cc23)c(-c2ccc(NC(=O)N(C)C)cc2)n1
Method in brief: as §1

[7] = compound: CN(C)CC(=O)Nc1ccc2[nH]c(=O)c3ccccc3c2c1
Method in brief: as §1

[8] = compound: CN(CCOC1=CC=C(C=C1)C[C@H]2C(=O)NC(=O)S2)C3=CC=CC=N3 (racemic) [rosiglitazone]
Method in brief: as §1

[9] = compound: CN1C2=C(C3=C1C(=O)N(N=C3)CC4=CC(=CC=C4)N)SC(=C2)S(=O)C
Method in brief: as §1

[10] = compound: CN1CCC(CNc2ccc3ncc(-c4cccc(OC(F)(F)F)c4)n3n2)CC1
Method in brief: as §1

[11] = compound: CN1CCN(CCOc2cc(OC3CCOCC3)c3c(Nc4c(Cl)ccc5c4OCO5)ncnc3c2)CC1 [saracatinib]
Method in brief: as §1

[12] = compound: CN1CCN(c2nc(C3=C(c4c[nH]c5ccccc45)C(=O)NC3=O)c3ccccc3n2)CC1 [sotrastaurin]
Method in brief: as §1

[13] = compound: CN1CC[C@H](c2c(O)cc(O)c3c(=O)cc(-c4ccccc4Cl)oc23)[C@H](O)C1 [alvocidib]
Method in brief: as §1

[14] = compound: CN1CCc2c(c3ccccc3n2Cc2ccc(C(=O)NO)cc2)C1 [Tubastatin A]
Method in brief: as §1

[15] = compound: CNC(=O)C1=CC=CC=C1NC2=NC(=NC=C2Cl)NC3=C(C=C(C=C3)N4CCOCC4)OC
Method in brief: as §1

[16] = compound: CNC(=O)c1ccc(Nc2ncc(C(F)(F)F)c(NCc3nccnc3N(C)S(C)(=O)=O)n2)cc1 [defactinib]
Method in brief: as §1

[17] = compound: CNCc1ccc(-c2[nH]c3cc(F)cc4c3c2CCNC4=O)cc1 [rucaparib]
Method in brief: as §1

[18] = compound: CNc1nc(-c2ccc3c(N)n[nH]c3c2)cc(N2C[C@@H](C(=O)NC3CCCCC3)CC[C@H]2C)n1
Method in brief: as §1

[19] = compound: COC(=O)N[C@@H](C)CNc1nccc(-c2cn(C(C)C)nc2-c2cc(Cl)cc(NS(C)(=O)=O)c2F)n1 [encorafenib]
Method in brief: as §1

[20] = compound: COC(=O)[C@H](CCSC)NC(=O)C1=C(C=C(C=C1)NC[C@H](CS)N)C2=CC=CC=C2
Method in brief: as §1

Measured: log2 fold change

UROD (UniProt P06132)
inactive: [1] 0 | [2] 0.057 | [3] -0.006 | [4] 0.005 | [5] 0.006 | [6] -0.035 | [7] -0.031 | [8] 0 | [9] 0.003 | [10] -0.015 | [11] -0.046 | [12] 0.046 | [13] -0.01 | [14] -0.007 | [15] -0.042 | [16] 0.019 | [17] 0.02 | [18] -0.029 | [19] -0.025 | [20] 0.038

UBR7 (UniProt Q8N806)
inactive: [1] -0.015 | [2] -0.121 | [3] 0.047 | [4] 0.077 | [5] -0.017 | [6] 0.002 | [7] -0.046 | [8] 0.022 | [9] -0.063 | [10] -0.016 | [11] 0.056 | [12] 0.039 | [13] -0.107 | [14] 0.011 | [15] 0.006 | [16] -0.073 | [17] -0.045 | [18] -0.064 | [19] 0.034 | [20] 0.024

USP5 (UniProt P45974)
inactive: [1] -0.005 | [2] 0.048 | [3] 0.011 | [4] 0.048 | [5] -0.006 | [6] -0.004 | [7] 0.015 | [8] 0.019 | [9] -0.055 | [10] -0.019 | [11] -0.024 | [12] 0.006 | [13] -0.102 | [14] 0.023 | [15] -0.014 | [16] -0.045 | [17] -0.058 | [18] 0.01 | [19] 0.013 | [20] -0.02

UBR4 isoform 2 (UniProt Q5T4S7)
inactive: [1] -0.031 | [2] -0.179 | [3] 0.055 | [4] 0.012 | [5] -0.039 | [6] 0.022 | [7] 0.015 | [8] 0.007 | [9] 0.118 | [10] -0.088 | [11] -0.037 | [12] -0.114 | [13] 0.008 | [14] 0.039 | [15] 0.013 | [16] 0.032 | [17] 0.124 | [18] 0.066 | [19] 0.112 | [20] -0.043

UIMC1 (UniProt Q96RL1)
inactive: [1] 0.124 | [2] 0.103 | [3] -0.027 | [4] -0.079 | [5] 0.002 | [6] -0.124 | [7] -0.009 | [8] -0.063 | [9] 0.115 | [10] 0.064 | [11] 0 | [12] 0.054 | [13] 0.193 | [14] 0.029 | [15] -0.016 | [16] 0.119 | [17] 0.192 | [18] 0.041 | [19] 0.019 | [20] 0.034

UGGT2 (UniProt Q9NYU1)
inactive: [1] 0.01 | [2] 0.057 | [3] -0.053 | [4] 0.057 | [5] -0.007 | [6] 0.024 | [7] -0.103 | [8] -0.046 | [9] 0.107 | [10] 0.064 | [11] -0.055 | [12] 0.064 | [13] 0.04 | [14] 0.125 | [15] -0.046 | [16] -0.029 | [17] 0.268 | [18] -0.017 | [19] 0.144 | [20] 0.01

UQCRH (UniProt P07919)
inactive: [1] 0.053 | [2] 0.069 | [3] -0.114 | [4] 0.079 | [5] -0.003 | [6] 0.002 | [7] -0.04 | [8] -0.002 | [9] -0.031 | [10] 0.075 | [11] -0.005 | [12] 0.009 | [13] -0.042 | [14] 0.014 | [15] -0.018 | [16] 0.034 | [17] -0.103 | [18] -0.123 | [19] -0.063 | [20] 0.029

VAC14 (UniProt Q08AM6)
inactive: [1] -0.052 | [2] -0.107 | [3] 0.012 | [4] 0.005 | [5] 0.01 | [6] -0.043 | [7] -0.021 | [8] 0.016 | [9] -0.031 | [10] -0.202 | [11] 0.014 | [12] -0.012 | [13] -0.036 | [14] -0.037 | [15] -0.005 | [16] -0.012 | [17] -0.033 | [18] -0.054 | [19] 0.007 | [20] -0.014

URI1 (UniProt O94763)
inactive: [1] 0.034 | [2] 0.166 | [3] 0.04 | [4] 0.002 | [5] -0.001 | [6] -0.012 | [7] -0.002 | [8] 0.035 | [9] 0.005 | [10] -0.054 | [11] -0.012 | [12] 0.026 | [13] 0.027 | [14] 0.059 | [15] -0.053 | [16] -0.018 | [17] 0.002 | [18] -0.033 | [19] -0.021 | [20] 0.008

UNC13D isoform 3 (UniProt Q70J99)
inactive: [1] 0.006 | [2] -0.19 | [3] -0.087 | [4] -0.078 | [5] -0.081 | [6] 0.047 | [7] 0.036 | [8] -0.015 | [9] 0.247 | [10] 0.052 | [11] -0.062 | [12] -0.227 | [13] -0.021 | [14] 0.066 | [15] -0.029 | [16] -0.031 | [17] 0.349 | [18] 0.144 | [19] 0.143 | [20] -0.137

VASP (UniProt P50552)
inactive: [1] -0.066 | [2] -0.291 | [3] 0.125 | [4] 0.006 | [5] -0.12 | [6] -0.019 | [7] 0.079 | [8] 0.08 | [9] 0.1 | [10] -0.145 | [11] -0.137 | [12] -0.184 | [13] -0.056 | [14] 0.003 | [15] 0.057 | [16] -0.032 | [17] 0.236 | [18] 0.13 | [19] 0.136 | [20] -0.103

UBQLN4 (UniProt Q9NRR5)
inactive: [1] 0.009 | [2] 0.055 | [3] -0.076 | [4] 0.037 | [5] 0.017 | [6] 0.023 | [7] -0.018 | [8] -0.01 | [9] -0.035 | [10] 0.019 | [11] 0.056 | [12] -0.032 | [13] 0.004 | [14] -0.017 | [15] -0.027 | [16] 0.034 | [17] -0.036 | [18] -0.044 | [19] -0.015 | [20] -0.01

VANGL1 (UniProt Q8TAA9)
inactive: [1] 0.027 | [2] -0.069 | [3] 0.008 | [4] 0.044 | [5] 0.014 | [6] 0.047 | [7] 0.013 | [8] -0.03 | [9] 0.196 | [10] 0.109 | [11] -0.092 | [12] 0.036 | [13] 0.127 | [14] 0.078 | [15] -0.047 | [16] -0.096 | [17] 0.103 | [18] -0.047 | [19] 0.016 | [20] 0.029

USP10 isoform 2 (UniProt Q14694)
inactive: [1] 0.05 | [2] -0.049 | [3] 0.052 | [4] -0.053 | [5] 0.02 | [6] 0.001 | [7] -0.031 | [8] -0.004 | [9] 0.033 | [10] 0.015 | [11] -0.022 | [12] 0.007 | [13] 0 | [14] 0.021 | [15] 0.012 | [16] 0 | [17] 0.11 | [18] -0.01 | [19] 0.019 | [20] -0.021

Taken from the entries so far (2 entries):
VASP (UniProt P50552)
inactive: [1] -0.066 | [2] -0.291 | [3] 0.125 | [4] 0.006 | [5] -0.12 | [6] -0.019 | [7] 0.079 | [8] 0.08 | [9] 0.1 | [10] -0.145 | [11] -0.137 | [12] -0.184 | [13] -0.056 | [14] 0.003 | [15] 0.057 | [16] -0.032 | [17] 0.236 | [18] 0.13 | [19] 0.136 | [20] -0.103

UBQLN4 (UniProt Q9NRR5)
inactive: [1] 0.009 | [2] 0.055 | [3] -0.076 | [4] 0.037 | [5] 0.017 | [6] 0.023 | [7] -0.018 | [8] -0.01 | [9] -0.035 | [10] 0.019 | [11] 0.056 | [12] -0.032 | [13] 0.004 | [14] -0.017 | [15] -0.027 | [16] 0.034 | [17] -0.036 | [18] -0.044 | [19] -0.015 | [20] -0.01

(further entries)

VAMP8 (UniProt Q9BV40)
inactive: [1] 0 | [2] 0.08 | [3] -0.061 | [4] -0.032 | [5] 0.049 | [6] 0.045 | [7] -0.038 | [8] -0.04 | [9] 0.006 | [10] 0.055 | [11] 0.06 | [12] 0.048 | [13] -0.027 | [14] -0.075 | [15] 0.016 | [16] 0.049 | [17] -0.037 | [18] -0.051 | [19] -0.034 | [20] 0.04
